Reference: the supplement of paper PMC12889115
The list shows a part of the results. Values are raw readings; no control value is given beside them.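 Primary screen: polymyxin B was added at a level permeabilizing Salmonella outer membranes while sparing inner membranes. DMSO wells, both with and without polymyxin B, established maximum growth. Plate-to-plate variation meant each plate was ranked on its own, and the lowest-OD600 compounds were selected as hits.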

System: Salmonella enterica serovar Typhimurium SL1344
Test: bacterial growth OD600 after 18 h with compound and polymyxin B; higher = more bacterial growth (less inhibition)
Details: 50 µM, Mueller-Hinton broth

SMILES | bacterial growth OD600 (polymyxin B 1 µg/mL) | bacterial growth OD600 (polymyxin B 0.75 µg/mL)
COC(=O)CCCC(=O)N1CCC(C(=O)Nc2ccc(-c3nc4ccccc4o3)cc2)CC1 | 1.04 | 
COCCN1CCN(C(=O)c2ccc(OC3CCN(C(=O)C4CC4)CC3)cc2)CC1 | 0.89 | 
COc1cccc(CN2CCCC(CCC(=O)NCc3ccc(OC)cc3OC)C2)c1 (stereo not given) |  | 0.974
O=C(C1CCN(Cc2nc(C(c3ccccc3)c3ccccc3)no2)CC1)N1CCCCC1 | 0.504 | 
CN1CCN(C(=O)C2CCN(c3nc(-c4ccccc4)nc4c3CCC4)CC2)CC1 |  | 0.806
COc1ccc(C(=O)NC2CC2)c(OC2CCN(Cc3c(C)nn(C)c3Cl)CC2)c1 | 1.09 | 
CCc1ccc(CN2CCCC(CNS(=O)(=O)c3ccc(OC)cc3)C2)cc1 (stereo not given) | 0.87 | 
Cc1ccc(C(=O)N2CCC3(CC2)CC3C(=O)NCCc2ccccn2)c(C)c1 (stereo not given) |  | 0.845
Cc1noc(C)c1CCCNC(=O)c1ccc(N2CCC(CO)CC2)nc1 | 1.17 | 
Cc1csc(CNc2ccc(-c3nc(C4CC4)no3)cn2)n1 |  | 0.724
O=C(c1ccc(NCC2CCCCO2)nc1)N1CCC(Cn2cccn2)CC1 (stereo not given) | 1.07 | 
O=C(CCc1ccco1)N1CCC(C2CCN(Cc3cccc(F)c3F)CC2)C1 (stereo not given) |  | 0.854
CC(C)c1cc(CN2CCC(n3nccc3NC(=O)c3ccc4c(c3)OCO4)CC2)n[nH]1 | 0.006 | 
O=C(NC1CC(=O)N(CCCc2ccccc2)C1)c1ccco1 (stereo not given) | 0.87 | 
CCCC(NC(=O)CCCn1nnnc1CN1CCC(C)CC1)c1ccccc1 (stereo not given) |  | 0.663
O=C(C1CCCCCC1)N1CCCC(Nc2ccc(F)cc2)C1 (stereo not given) | 0.638 | 
COc1ccccc1/C=C/[C@@H]1C[C@H]2CN(Cc3ccccc3C)C(=O)[C@]23CCCN13 |  | 0.49
CCc1cc(C(=O)N2CCCC(CCC(=O)N3CCN(Cc4ccccc4)CC3)C2)n(C)n1 (stereo not given) | 0.896 | 
CCN(CC1CCCO1)C(=O)c1csc2nc(-c3ccccc3)cn12 (stereo not given) | 0.852 | 
Cc1cc2nc(N3CCC(C(=O)NCC(C)c4ccccc4)CC3)nc(C)c2cc1C (stereo not given) |  | 0.598
CCOC(=O)CN(C)C(=O)c1cccc(OC2CCN(C(=O)C3CC3)CC2)c1 | 1.06 | 
C=C(C)CN(CC)C(=O)CCc1nnc(-c2ccc3c(c2)OCO3)o1 | 0.933 | 
CC(c1ccccc1)c1cc(C(=O)NCc2cnc3ccccn23)on1 (stereo not given) |  | 0.812
c1ccc(Oc2ncccc2CNCc2cccn2-c2cccnc2)cc1 |  | 0.845
CCO[C@H]1[C@H](NC(=O)c2ccco2)c2ccccc2C12CCN(C(=O)c1cc3ncccn3n1)CC2 |  | 0.847
CC(NC(=O)c1coc(CN2CCN(c3ccccc3F)CC2)n1)c1cnn(C)c1 (stereo not given) | 0.934 | 
COCC(=O)Nc1cc(C(=O)N(C)CCc2cnn(C)c2)cc2ncn(CCc3ccccc3)c12 |  | 0.785
COCCN(C)C(=O)c1cc(NC(=O)c2ccccc2)cc2ncn(C3CCCC3)c12 |  | 0.826
CCOC(=O)C1(CCCc2ccccc2)CCCN(C(=O)COC)C1 (stereo not given) | 0.911 | 
O=C(NC1CC(=O)N(Cc2cccc3ccccc23)C1)C1CCCC1 (stereo not given) | 0.91 | 

2 entries picked at random from the list so far:
SMILES | bacterial growth OD600 (polymyxin B 1 µg/mL) | bacterial growth OD600 (polymyxin B 0.75 µg/mL)
O=C(C1CCCCCC1)N1CCCC(Nc2ccc(F)cc2)C1 (stereo not given) | 0.638 | 
COc1ccc(C(=O)NC2CC2)c(OC2CCN(Cc3c(C)nn(C)c3Cl)CC2)c1 | 1.09 | 
